Measurements reported in PubChem BioAssay AID1259308 (NCATS, 2017)
Aim: 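Candidate targets for better recombinant protein yield in mammalian cells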 (primary screen). Cells: human HEK293 embryonic kidney cells stably expressing firefly luciferase (HEK-CMV-Luc2-Hygro). Reagent: single siRNA against human genes, 0.8 pmol siRNA per well. Timing: 72 h. Read-out: 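Reporter luminescence and viable-cell signal on separate replicate plates, given as percent of non-targeting control and median/MAD z-scores, plus per-cell luciferase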. Direction: total luciferase, z-score and total luciferase, % of control: higher = more reporter protein produced; luciferase per cell, z-score: higher = more reporter output per viable cell. Call rule: 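Active when the median/MAD z-score for overall luciferase is greater than 3; a gene was taken forward for validation with new siRNAs if at least two of its three siRNAs passed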. Calls: active = raised luciferase; inactive = no rise.
Here is an unselected part of about 59,000 reagents. About 1,510 of all reagents (2.6%) were called active. 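Calls use total luciferase alone and ignore viability, so some active siRNAs may act by altering cell number.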 Reagents against one gene are numbered here. Further read-outs or replicates are left out here.

no.	target	reagent	total luciferase, z-score	total luciferase, % of control	luciferase per cell, z-score	call
1	LOC732272 (retired record)	1	0.0239	82.4	-0.0518	inactive
2	LOC732272 (retired record)	2	-1.58	50.5	-0.927	inactive
3	LOC732272 (retired record)	3	-1.43	53.5	-0.512	inactive
4	ZNF266	1	-0.145	79	-0.178	inactive
5	ZNF266	2	0.178	85.4	-0.233	inactive
6	ZNF266	3	-1.26	56.8	-1.82	inactive
7	MAGOH	1	0.384	89.5	1.28	inactive
8	MAGOH	2	2.02	122	4.29	inactive
9	MAGOH	3	0.425	90.3	1.47	inactive
10	PIRT	1	1.13	104	0.881	inactive
11	PIRT	2	-0.829	65.4	0.391	inactive
12	PIRT	3	0.579	93.4	0.538	inactive
13	MPTX1	1	0.00181	81.9	-0.00152	inactive
14	MPTX1	2	-1.4	54	-0.861	inactive
15	MPTX1	3	1.75	117	2.59	inactive
16	WFDC6	1	0.293	87.7	1.03	inactive
17	WFDC6	2	1.75	117	2.34	inactive
18	WFDC6	3	-0.185	78.2	-0.0119	inactive
19	NRBF2	1	-0.32	75.5	-0.906	inactive
20	NRBF2	2	0.893	99.6	0.371	inactive
21	NRBF2	3	1.9	120	1.94	inactive
22	PROCR	1	1.28	107	1.36	inactive
23	PROCR	2	-2.66	28.9	-3.51	inactive
24	PROCR	3	-0.515	71.6	-1.02	inactive
25	TRIM32	1	1.2	106	0.924	inactive
26	TRIM32	2	-0.39	74.1	-0.687	inactive
27	TRIM32	3	-0.525	71.5	-0.958	inactive
28	ZNF827	1	0.599	93.8	0.394	inactive
29	ZNF827	2	-0.186	78.2	0.111	inactive
30	ZNF827	3	-0.949	63	-1.06	inactive
31	HSD17B12	1	-1.24	57.1	-0.704	inactive
32	HSD17B12	2	-2.13	39.5	-0.968	inactive
33	HSD17B12	3	1.38	109	0.905	inactive
34	ABCA15P	1	3.16	145	2.25	active
35	ABCA15P	2	-0.281	76.3	-0.382	inactive
36	ABCA15P	3	-0.772	66.5	-1.07	inactive
37	GFUS	1	0.688	95.6	0.779	inactive
38	GFUS	2	-0.344	75	-0.502	inactive
39	GFUS	3	1.3	108	0.248	inactive
